The values that follow come from article PMC8005928.

Protein sequences, listed by entry. Tags and fused reporters are not part of them.
UniProt P26040: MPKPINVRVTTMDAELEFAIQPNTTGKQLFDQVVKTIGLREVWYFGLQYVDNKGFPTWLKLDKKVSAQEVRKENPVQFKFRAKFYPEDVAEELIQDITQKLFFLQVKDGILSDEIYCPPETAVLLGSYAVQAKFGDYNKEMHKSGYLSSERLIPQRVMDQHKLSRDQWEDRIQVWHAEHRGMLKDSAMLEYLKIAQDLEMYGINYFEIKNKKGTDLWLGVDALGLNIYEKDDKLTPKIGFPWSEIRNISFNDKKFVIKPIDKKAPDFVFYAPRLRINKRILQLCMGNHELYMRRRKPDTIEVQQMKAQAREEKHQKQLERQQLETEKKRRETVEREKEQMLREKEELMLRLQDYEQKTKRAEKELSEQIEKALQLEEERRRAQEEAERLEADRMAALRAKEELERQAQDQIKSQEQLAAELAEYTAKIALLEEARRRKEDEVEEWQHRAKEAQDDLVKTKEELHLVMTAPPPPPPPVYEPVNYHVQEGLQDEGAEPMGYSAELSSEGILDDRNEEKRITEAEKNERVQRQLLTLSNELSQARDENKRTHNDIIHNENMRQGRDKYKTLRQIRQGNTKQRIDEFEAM
UniProt P15311: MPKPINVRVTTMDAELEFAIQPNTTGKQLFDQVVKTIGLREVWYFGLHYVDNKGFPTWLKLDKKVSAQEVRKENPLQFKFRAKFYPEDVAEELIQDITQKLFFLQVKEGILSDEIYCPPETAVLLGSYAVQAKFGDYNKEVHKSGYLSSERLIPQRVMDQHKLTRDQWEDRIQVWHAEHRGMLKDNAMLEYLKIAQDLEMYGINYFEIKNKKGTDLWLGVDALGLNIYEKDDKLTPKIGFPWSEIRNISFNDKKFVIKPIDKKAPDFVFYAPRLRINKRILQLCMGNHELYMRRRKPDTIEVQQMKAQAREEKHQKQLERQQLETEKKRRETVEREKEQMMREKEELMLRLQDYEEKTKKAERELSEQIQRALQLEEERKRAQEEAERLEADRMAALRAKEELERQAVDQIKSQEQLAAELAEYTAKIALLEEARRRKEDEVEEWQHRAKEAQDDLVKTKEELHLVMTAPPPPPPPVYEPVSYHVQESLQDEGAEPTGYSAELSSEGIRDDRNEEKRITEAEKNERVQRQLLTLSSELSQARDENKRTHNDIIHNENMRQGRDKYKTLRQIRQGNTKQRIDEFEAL

Results are given in words; binding and its absence hold for the method and conditions named. Binding seen in cells or lysates may run through a third protein. Some entries that bind do so weakly or less than the wild type.

In assay [1] the target is T1, ARID3A (murine follicular B cells) (mouse (endogenous in follicular B cells)) (UniProt Q62431).
T1 sequence: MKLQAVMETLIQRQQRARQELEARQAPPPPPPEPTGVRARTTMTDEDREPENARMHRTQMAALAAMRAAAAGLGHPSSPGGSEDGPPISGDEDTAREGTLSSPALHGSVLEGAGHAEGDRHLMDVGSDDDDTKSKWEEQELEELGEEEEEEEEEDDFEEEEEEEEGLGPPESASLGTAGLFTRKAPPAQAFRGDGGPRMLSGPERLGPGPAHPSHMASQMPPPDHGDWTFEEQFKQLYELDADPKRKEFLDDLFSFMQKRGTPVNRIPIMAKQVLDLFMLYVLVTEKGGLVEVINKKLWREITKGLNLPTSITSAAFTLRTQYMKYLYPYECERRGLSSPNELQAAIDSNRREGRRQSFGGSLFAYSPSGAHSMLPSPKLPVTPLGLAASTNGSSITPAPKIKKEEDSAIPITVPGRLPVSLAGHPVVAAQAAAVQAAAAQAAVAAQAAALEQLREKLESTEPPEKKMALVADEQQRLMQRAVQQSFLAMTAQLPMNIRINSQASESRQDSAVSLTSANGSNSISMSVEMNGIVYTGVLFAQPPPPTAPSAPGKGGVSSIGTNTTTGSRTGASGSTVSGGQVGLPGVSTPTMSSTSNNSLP
In words: co-IP; whole-cell lysates of normal murine follicular B cells stimulated with α-IgM, α-CD19 or α-IgM+α-CD19; anti-ARID3A IP, blots with anti-EZRIN or anti-αβ-actin.

For assay [2], the target named is T2, ARID3A (human (endogenous in Raji, Ramos, CL-01, Daudi)) (UniProt Q99856).
T2 sequence: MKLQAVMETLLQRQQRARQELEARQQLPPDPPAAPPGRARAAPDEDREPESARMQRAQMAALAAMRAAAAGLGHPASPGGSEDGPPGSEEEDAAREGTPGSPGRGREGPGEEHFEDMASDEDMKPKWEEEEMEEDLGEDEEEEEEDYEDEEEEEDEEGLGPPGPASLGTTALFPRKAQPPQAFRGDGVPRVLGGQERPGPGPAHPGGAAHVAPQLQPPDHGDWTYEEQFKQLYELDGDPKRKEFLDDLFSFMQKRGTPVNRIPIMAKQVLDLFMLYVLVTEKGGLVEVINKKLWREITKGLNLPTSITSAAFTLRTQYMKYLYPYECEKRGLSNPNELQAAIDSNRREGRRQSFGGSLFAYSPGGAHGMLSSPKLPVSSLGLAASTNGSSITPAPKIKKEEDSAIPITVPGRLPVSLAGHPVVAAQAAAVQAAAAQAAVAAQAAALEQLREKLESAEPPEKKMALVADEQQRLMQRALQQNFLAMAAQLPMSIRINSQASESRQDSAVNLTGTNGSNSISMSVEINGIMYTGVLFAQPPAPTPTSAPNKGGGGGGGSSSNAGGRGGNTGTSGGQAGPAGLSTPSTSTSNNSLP
Description: co-IP; whole-cell lysates of Raji, Ramos, CL-01 and Daudi cells, stimulated or unstimulated; anti-ARID3A IP, anti-EZRIN Western blot.

Assay [3] deals with T2, ARID3A (human (endogenous in Raji, Ramos, CL-01, Daudi)). Description: co-IP; lipid rafts (sucrose gradient, solubilised in RIPA with 500 mM NaCl) of Raji, Ramos, CL-01 and Daudi cells stimulated for 5 min with anti-IgM, anti-CD19 or both; anti-ARID3A IP, anti-EZRIN Western blot. Background: Immunoblotting shows a protein as a band on a membrane.
Assay [4] shares this target. Description: co-IP; lipid rafts of unstimulated B-cell lines; anti-ARID3A IP, anti-EZRIN Western blot.

For “EZRIN (murine follicular B cells) (from UniProt P26040 1-586)”, the binding result in assay [1] is listed as “binds”.

As for EZRIN (from UniProt P15311 1-586), the figures for the binding result in assay [2], in assay [3] and in assay [4] were “no binding (condition: in whole-cell lysates)”, “binds” and “no binding (condition: unstimulated cells)”, respectively.
